Measured values reported in PubChem BioAssay AID1332 (Southern Research Institute, 2008).
In brackets after ≈: the same amount, converted by molar mass. Some of the results follow. These are further read-outs of the screen, such as a control signal, another cell line or another target. No call is given for them.

Assay: Mycobacterium tuberculosis H37Rv growth inhibition, confirmatory dose response, cytotoxicity (AID 1332);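 on CC50: Vero cells exposed to compounds for 72 hours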;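 on IC50: bacteria incubated 7 days before adding Alamar blue readout reagent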
Settings: M. tuberculosis H37Rv growth inhibition; CC50: measured here: Vero cell cytotoxicity; IC50: measured here: IC50 H37Rv replicates
`Nc1c2c(nc3ccccc13)CCCC2O` (stereo not given) showed an IC50 of over 20 µg/mL.
`CC(C)C[C@H]1C(=O)N2CCC[C@H]2[C@]2(O)O[C@](NC(=O)[C@@H]3C=C4c5cccc6[nH]c(Br)c(c56)CC4N(C)C3)(C(C)C)C(=O)N12` (stereo not given in full) gave an IC50 of over 20 µg/mL.
`CCN1C[C@]2(COC)CC[C@H](O)[C@]34C1[C@H](C[C@H]23)[C@@]1(O)C[C@H](OC)[C@H]2C[C@@H]4[C@@H]1[C@H]2OC(C)=O` gave an IC50 of over 20 µg/mL.
With `CC(N=C(NC#N)Nc1ccncc1)C(C)(C)C` (stereo not given) the IC50 was over 20 µg/mL.
Work on `CC(=O)OCC(=O)[C@@]1(OC(C)=O)[C@@H](C)C[C@H]2[C@@H]3C[C@H](F)C4=CC(=O)C=C[C@]4(C)[C@@]3(F)[C@@H](O)C[C@@]21C` yielded an IC50 of over 20 µg/mL.
Work on `CCCOc1ccc(C(=O)OCCN(CC)CC)cc1N` yielded an IC50 of over 20 µg/mL.
`O=c1[nH]c2ccccc2n1C1CCN(CCCC(c2ccc(F)cc2)c2ccc(F)cc2)CC1` showed a CC50 of 5.04 µg/mL (≈ 10.9 µM) and an IC50 of 1.62 µg/mL (≈ 3.51 µM).
Work on `C#C[C@]1(O)CC[C@H]2[C@@H]3CCC4=CC(=O)CC[C@@H]4[C@H]3CC[C@@]21CC` yielded an IC50 of over 20 µg/mL.
Work on `CC1(C)[C@@H](OC(=O)CCC(=O)O)CC[C@]2(C)[C@H]3C(=O)C=C4[C@@H]5C[C@@](C)(C(=O)O)CC[C@]5(C)CC[C@@]4(C)[C@]3(C)CC[C@@H]12` yielded an IC50 of over 20 µg/mL.
Work on `C=CCOC(Cn1ccnc1)c1ccc(Cl)cc1Cl` (stereo not given) yielded an IC50 of 1.81 µg/mL (≈ 6.08 µM).
With `Cc1cc2c(C(C)C)c(O)c(O)c(C=O)c2c(O)c1-c1c(C)cc2c(C(C)C)c(O)c(O)c(C=O)c2c1O` the CC50 was 4.7 µg/mL (≈ 9.07 µM) and the IC50 was over 20 µg/mL.
`CO[C@@H]1[C@@H](O[C@@H]2O[C@H](C)[C@@H](O[C@H]3C[C@@](C)(OC(=O)CC(C)C)[C@@H](O)[C@H](C)O3)[C@H](N(C)C)[C@H]2O)[C@@H](CC=O)C[C@@H](C)[C@@H](O)/C=C/C=C/C[C@@H](C)OC(=O)C[C@H]1OC(C)=O` showed an IC50 of over 20 µg/mL.
In the case of `O=C(/C=C/c1ccc(O)c(O)c1)O[C@@H]1C[C@](O)(C(=O)O)C[C@@H](O)[C@H]1O`, the IC50 is reported as over 20 µg/mL.
Work on `c1ccc(CN(CC2=NCCN2)c2ccccc2)cc1` yielded an IC50 of over 20 µg/mL.
For `C=CCSCC1Nc2cc(Cl)c(S(N)(=O)=O)cc2S(=O)(=O)N1` (stereo not given), the IC50 was over 20 µg/mL.
For `CN1C2CCC1CC(OC(=O)C(CO)c1ccccc1)C2` (stereo not given), the IC50 was over 20 µg/mL.
Work on `CCOC(=O)c1ccc(N)cc1` yielded an IC50 of over 20 µg/mL.
With `OC(CCCN1CCCCC1)(c1ccccc1)c1ccccc1` the IC50 was over 20 µg/mL.
Compound `C[C@]12CC[C@@H]3c4ccc(OS(=O)(=O)O)cc4CC[C@H]3[C@@H]1CCC2=O` has an IC50 of over 20 µg/mL.
In the case of `Cc1ccc(S(=O)(=O)NC(=O)NN2CCCCCC2)cc1`, the IC50 is reported as over 20 µg/mL.
Work on `CCC(=O)OC(Cc1ccccc1)(c1ccccc1)C(C)CN(C)C` (stereo not given) yielded an IC50 of over 20 µg/mL.
`Cc1ccsc1/C=C/C1=NCCCN1C` gave an IC50 of over 20 µg/mL.
In the case of `CCN(CC)CCNc1ccc(CO)c2sc3ccccc3c(=O)c12`, the CC50 is reported as 3 µg/mL (≈ 8.41 µM) and the IC50 is reported as 10.8 µg/mL (≈ 30.3 µM).
In the case of `O=C(COc1ccc(Cl)cc1)N1CCN(Cc2ccc3c(c2)OCO3)CC1`, the IC50 is reported as over 20 µg/mL.
Compound `CN(Cc1cnc2nc(N)nc(N)c2n1)c1ccc(C(=O)N[C@@H](CCC(=O)O)C(=O)O)cc1` has a CC50 of 0.023 µg/mL (≈ 0.0506 µM) and an IC50 of over 20 µg/mL.
With `CC1=C(/C=C/C(C)=C/C=C/C(C)=C\C(=O)O)C(C)(C)CCC1` the IC50 was over 20 µg/mL.
`CC/C(=C(/CC)c1ccc(O)cc1)c1ccc(O)cc1` gave a CC50 of over 6 µg/mL and an IC50 of over 20 µg/mL.
`CSc1ccc2c(c1)N(CCC1CCCCN1C)c1ccccc1S2` (stereo not given) showed a CC50 of over 6 µg/mL and an IC50 of 2.28 µg/mL (≈ 6.14 µM).
In the case of `NC(N)=Nc1nc(CSCC/C(N)=N/S(N)(=O)=O)cs1`, the IC50 is reported as over 20 µg/mL.
In the case of `COc1cc(NC(C)CCCN)c2ncccc2c1` (stereo not given), the IC50 is reported as 11.6 µg/mL (≈ 44.6 µM).
In the case of `CCCCNc1c(C(=O)OCC)c(C)nc2c1cnn2CC`, the CC50 is reported as over 6 µg/mL and the IC50 is reported as over 20 µg/mL.
Compound `COc1cc(-c2ccc(=O)[nH]n2)ccc1OC(F)F` has an IC50 of over 20 µg/mL.
`CCOC(=O)NNc1nncc2ccccc12` gave an IC50 of over 20 µg/mL.
With `CCCCN1CCCCC1C(=O)Nc1c(C)cccc1C` (stereo not given) the IC50 was over 20 µg/mL.
Work on `CC(COc1ccccc1)NC(C)C(O)c1ccc(O)cc1` (stereo not given) yielded an IC50 of over 20 µg/mL.
In the case of `CC(C)(C)c1ccc(C(O)CCCN2CCC(C(O)(c3ccccc3)c3ccccc3)CC2)cc1` (stereo not given), the CC50 is reported as 2.54 µg/mL (≈ 5.39 µM) and the IC50 is reported as 1.33 µg/mL (≈ 2.82 µM).
`CC(=O)[C@H]1CC[C@H]2[C@@H]3CC=C4C[C@@H](O)CC[C@]4(C)[C@H]3CC[C@]12C` showed an IC50 of over 20 µg/mL.
With `COc1ccc(CC2c3cc(OC)c(OC)cc3CC[N+]2(C)CCC(=O)OCCCCCOC(=O)CC[N+]2(C)CCc3cc(OC)c(OC)cc3C2Cc2ccc(OC)c(OC)c2)cc1OC` (stereo not given) the IC50 was over 20 µg/mL.
With `CN1CCC2=C[C@H](O)[C@H]3OC(=O)c4cc5c(cc4[C@H]3[C@@H]21)OCO5` the CC50 was over 6 µg/mL and the IC50 was over 20 µg/mL.
`CN(C)CCCN1c2ccccc2Sc2ccc(Cl)cc21` showed a CC50 of over 6 µg/mL and an IC50 of 5.23 µg/mL (≈ 16.4 µM).
`Cc1cc(=O)n(-c2ccccc2)n1C` gave an IC50 of over 20 µg/mL.
In the case of `Clc1ccc(COC(Cn2ccnc2)c2ccc(Cl)cc2Cl)c(Cl)c1` (stereo not given), the CC50 is reported as over 6 µg/mL and the IC50 is reported as 1.25 µg/mL (≈ 3.01 µM).
For `C[C@@H]1CN(C2CCC(C#N)(c3ccc(F)cc3)CC2)CC[C@]1(C(=O)O)c1ccccc1` (stereo not given in full), the IC50 was over 20 µg/mL.
`NC12CC3CC(CC(C3)C1)C2` showed an IC50 of over 20 µg/mL.
Work on `CN1CCN(C2=Nc3cc(Cl)ccc3Nc3ccccc32)CC1` yielded an IC50 of over 20 µg/mL.
Compound `CO[C@@]1(NC(=O)CSCC#N)C(=O)N2C(C(=O)O)=C(CSc3nnnn3C)CS[C@@H]21` has an IC50 of over 20 µg/mL.
In the case of `C[C@@H]1[C@H](O)[C@@H](C)/C=C/C=C/C=C/C=C/C=C/C=C/C=C/[C@H](O[C@@H]2O[C@H](C)[C@@H](O)[C@H](N)[C@@H]2O)C[C@@H]2O[C@](O)(C[C@@H](O)C[C@@H](O)[C@H](O)CC[C@@H](O)C[C@@H](O)CC(=O)O[C@H]1C)C[C@H](O)[C@H]2C(=O)O`, the IC50 is reported as over 20 µg/mL.
`CC(C)NC[C@H](O)COc1ccc(CC(N)=O)cc1` showed an IC50 of over 20 µg/mL.
Work on `COc1ccc(OC)c(C(O)C(C)N)c1` (stereo not given) yielded an IC50 of over 20 µg/mL.
In the case of `CCC(NC(C)C)C(O)c1ccc(O)c(O)c1` (stereo not given), the IC50 is reported as over 20 µg/mL.
For `CCC(Cc1c(I)cc(I)c(N)c1I)C(=O)O` (stereo not given), the IC50 was over 20 µg/mL.
For `CN1CCc2cccc3c2[C@H]1Cc1ccc(O)c(O)c1-3`, the IC50 was over 20 µg/mL.
Compound `O=c1cc(-c2ccc(O)c(O)c2)oc2cc(O)cc(O)c12` has a CC50 of 5.13 µg/mL (≈ 17.9 µM) and an IC50 of over 20 µg/mL.
Compound `CCC(=O)O[C@H]1CC[C@H]2[C@@H]3CCC4=CC(=O)CC[C@]4(C)[C@H]3CC[C@]12C` has an IC50 of over 20 µg/mL.
For `CC(C)(C(=O)c1cccnc1)c1cccnc1`, the IC50 was over 20 µg/mL.
Work on `CC(=O)N(O)CCCCCNC(=O)CCC(=O)N(O)CCCCCNC(=O)CCC(=O)N(O)CCCCCN` yielded a CC50 of 4.57 µg/mL (≈ 8.16 µM) and an IC50 of over 20 µg/mL.
Compound `CC(=O)O[C@H]1C[C@@]2(C)[C@@H](C[C@@H](O)[C@H]3[C@@]4(C)CC[C@@H](O)[C@@H](C)C4CC[C@@]32C)/C1=C(\CCC=C(C)C)C(=O)O` (stereo not given in full) has an IC50 of 0.161 µg/mL (≈ 0.312 µM).
